Literature values in patent publication US20010046961A1, “Method for the treatment of solid tumors by albumin microparticles incorporating paclitaxel” (ACS DOBFAR S.p.A., priority 2000, published 2001).

CC(=O)O[C@H]1C(=O)[C@@]2(C)[C@H]([C@H](OC(=O)c3ccccc3)[C@]3(O)C[C@H](OC(=O)[C@H](O)[C@@H](NC(=O)c4ccccc4)c4ccccc4)C(C)=C1C3(C)C)[C@]1(OC(C)=O)CO[C@@H]1C[C@@H]2O [Paclitaxel]
solubility in water: insoluble in water
